The values that follow are results of earlier work, collected in patent US12296049B2, “Immediate release dosage form” (Kenvue Brands LLC, priority 2019, dated 2025).

Molecules are shown by their SMILES.

The conditions of this data set: after oral administration, typical.

Take `COc1ccc2cc([C@H](C)C(=O)O)ccc2c1` [naproxen sodium]: the “Time to maximum plasma concentration” value is 1 to 2 h.
